PubChem BioAssay AID743458 | Peter MacCallum Cancer Centre – 2014
This is one part, drawn at random, of about 1,800 deposited reagents. Over the whole deposit, 732 (41%) were called active. 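Calls are per siRNA reagent; a gene was deemed confirmed only if most of its four siRNAs scored.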 A number with no mark means an inactive call. Reagents against one gene are numbered here.

- Purpose: 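Retest earlier hits with independent siRNAs per gene for restoring vorinostat sensitivity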 (follow-up of hits)
- Cells: human HCT116-VR colon cancer cells made resistant to vorinostat
- Reagent: single siRNA or pool against human genes, 25 nM per single siRNA
- Time to read-out: about 72 h after transfection, including 24 h of drug
- Treatment: vorinostat, 2.5 µM final, for 24 h
- Detection: 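Cell viability by fluorescence and apoptosis by caspase 3/7 luminescence under vorinostat, background-corrected, averaged across two plate copies and given as fold change versus mock transfection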
- Direction: viability relative to mock: higher = more living cells than mock; caspase activity relative to mock: higher = more apoptosis than mock
- Call rule: 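An siRNA counts as active if classed as reduced viability or as caspase activation, otherwise inactive; a hit class needed wells that remained healthy in the absence of drug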

gene	reagent no.	viability relative to mock	caspase activity relative to mock	viability hit class	caspase hit class
ANO9 (anoctamin 9)	1	0.72	1.43	no change	no change
ANO9 (anoctamin 9)	2	0.58 (active)	3.65	no change	caspase activation
ANO9 (anoctamin 9)	3	0.92 (active)	4.16	no change	caspase activation
ANO9 (anoctamin 9)	4	0.76 (active)	2.68	no change	caspase activation
ZNF629 (zinc finger protein 629)	1	0.81	1.63	no change	no change
ZNF629 (zinc finger protein 629)	2	0.88	0.98	no change	no change
ZNF629 (zinc finger protein 629)	3	0.26 (active)	3.66	reduced viability	caspase activation
ZNF629 (zinc finger protein 629)	4	0.76	1.44	no change	no change
VAX1 (ventral anterior homeobox 1)	1	0.75 (active)	2.76	no change	caspase activation
VAX1 (ventral anterior homeobox 1)	2	0.86 (active)	3.24	no change	caspase activation
VAX1 (ventral anterior homeobox 1)	3	0.91 (active)	3.77	no change	caspase activation
VAX1 (ventral anterior homeobox 1)	4	0.82	2.36	no change	no change
PSMD4 (proteasome 26S subunit ubiquitin receptor, non-ATPase 4)	1	0.23 (active)	3.63	reduced viability	caspase activation
PSMD4 (proteasome 26S subunit ubiquitin receptor, non-ATPase 4)	2	0.84	1.82	no change	no change
PSMD4 (proteasome 26S subunit ubiquitin receptor, non-ATPase 4)	3	0.6 (active)	4.97	no change	caspase activation
PSMD4 (proteasome 26S subunit ubiquitin receptor, non-ATPase 4)	4	0.58 (active)	5.25	no change	caspase activation
MRPL19 (mitochondrial ribosomal protein L19)	1	0.9 (active)	3.12	no change	caspase activation
MRPL19 (mitochondrial ribosomal protein L19)	2	0.88 (active)	2.9	no change	caspase activation
MRPL19 (mitochondrial ribosomal protein L19)	3	0.9 (active)	3.46	no change	caspase activation
MRPL19 (mitochondrial ribosomal protein L19)	4	0.81	2.27	no change	no change
SPINT2 (serine peptidase inhibitor, Kunitz type 2)	1	0.9 (active)	3.29	no change	caspase activation
SPINT2 (serine peptidase inhibitor, Kunitz type 2)	2	0.98	1.43	no change	no change
SPINT2 (serine peptidase inhibitor, Kunitz type 2)	3	0.59	1.34	no change	no change
SPINT2 (serine peptidase inhibitor, Kunitz type 2)	4	0.43 (active)	3.21	reduced viability	caspase activation
MIDEAS (mitotic deacetylase associated SANT domain protein)	1	0.85 (active)	4.81	no change	caspase activation
MIDEAS (mitotic deacetylase associated SANT domain protein)	2	0.9	1.29	no change	no change
MIDEAS (mitotic deacetylase associated SANT domain protein)	3	0.82	1.66	no change	no change
MIDEAS (mitotic deacetylase associated SANT domain protein)	4	0.38 (active)	4.62	reduced viability	caspase activation
INTS6 (integrator complex subunit 6)	1	0.95	1.22	no change	no change
INTS6 (integrator complex subunit 6)	2	0.64 (active)	3.58	no change	caspase activation
INTS6 (integrator complex subunit 6)	3	0.74 (active)	7.71	no change	caspase activation
INTS6 (integrator complex subunit 6)	4	0.75	2.17	no change	no change
KRTAP13-2 (keratin associated protein 13-2)	1	0.84 (active)	4.39	no change	caspase activation
KRTAP13-2 (keratin associated protein 13-2)	2	0.44 (active)	3.76	reduced viability	caspase activation
KRTAP13-2 (keratin associated protein 13-2)	3	0.82	1.18	no change	no change
KRTAP13-2 (keratin associated protein 13-2)	4	0.86	1.03	no change	no change
RPLP2 (ribosomal protein lateral stalk subunit P2)	1	0.4 (active)	1.19	reduced viability	no change
RPLP2 (ribosomal protein lateral stalk subunit P2)	2	0.2	2.46	no change	no change
RPLP2 (ribosomal protein lateral stalk subunit P2)	3	0.22 (active)	1.54	reduced viability	no change
RPLP2 (ribosomal protein lateral stalk subunit P2)	4	0.37 (active)	0.86	reduced viability	no change
MICU1 (mitochondrial calcium uptake 1)	1	0.84	1.99	no change	no change
MICU1 (mitochondrial calcium uptake 1)	2	1.03	1.02	no change	no change
MICU1 (mitochondrial calcium uptake 1)	3	0.93	2.25	no change	no change
MICU1 (mitochondrial calcium uptake 1)	4	0.5 (active)	2.04	reduced viability	no change
MAP1S (microtubule associated protein 1S)	1	0.93	0.78	no change	no change
MAP1S (microtubule associated protein 1S)	2	0.92	0.81	no change	no change
MAP1S (microtubule associated protein 1S)	3	0.26 (active)	1.83	reduced viability	no change
MAP1S (microtubule associated protein 1S)	4	0.86	1.56	no change	no change
KIAA1143	1	0.9	1.09	no change	no change
KIAA1143	2	0.66	2.22	no change	no change
KIAA1143	3	0.75 (active)	5.42	no change	caspase activation
KIAA1143	4	0.39 (active)	1.4	reduced viability	no change
POLR2L (RNA polymerase II, I and III subunit L)	1	0.46 (active)	4.7	reduced viability	caspase activation
POLR2L (RNA polymerase II, I and III subunit L)	2	0.44 (active)	3.71	reduced viability	caspase activation
POLR2L (RNA polymerase II, I and III subunit L)	3	0.68 (active)	3.21	no change	caspase activation
POLR2L (RNA polymerase II, I and III subunit L)	4	0.34 (active)	4.58	reduced viability	caspase activation
C16orf54 (chromosome 16 open reading frame 54)	1	0.9	1.59	no change	no change
C16orf54 (chromosome 16 open reading frame 54)	2	0.81 (active)	3.1	no change	caspase activation
C16orf54 (chromosome 16 open reading frame 54)	3	0.3	2.35	no change	no change
C16orf54 (chromosome 16 open reading frame 54)	4	0.86 (active)	2.7	no change	caspase activation
POLR2G (RNA polymerase II subunit G)	1	0.32 (active)	3.31	reduced viability	caspase activation
POLR2G (RNA polymerase II subunit G)	2	0.54 (active)	3.38	reduced viability	caspase activation
POLR2G (RNA polymerase II subunit G)	3	0.34 (active)	6.04	reduced viability	caspase activation
POLR2G (RNA polymerase II subunit G)	4	0.36 (active)	3.04	reduced viability	caspase activation
POP1 (POP1 ribonuclease P/MRP subunit)	1	0.86	1.22	no change	no change
POP1 (POP1 ribonuclease P/MRP subunit)	2	0.55 (active)	2.54	reduced viability	no change
POP1 (POP1 ribonuclease P/MRP subunit)	3	0.78	1.29	no change	no change
POP1 (POP1 ribonuclease P/MRP subunit)	4	0.65	1.02	no change	no change
TECTB (tectorin beta)	1	0.57	1.31	no change	no change
TECTB (tectorin beta)	2	0.28 (active)	1.67	reduced viability	no change
TECTB (tectorin beta)	3	1.02	0.84	no change	no change
TECTB (tectorin beta)	4	0.86	2.4	no change	no change
RBPMS2 (RNA binding protein, mRNA processing factor 2)	1	0.84	1.45	no change	no change
RBPMS2 (RNA binding protein, mRNA processing factor 2)	2	1.07	1.51	no change	no change
RBPMS2 (RNA binding protein, mRNA processing factor 2)	3	0.4 (active)	7	reduced viability	caspase activation
RBPMS2 (RNA binding protein, mRNA processing factor 2)	4	0.94	1.1	no change	no change
